The list does not hold the whole screen: it is rich in T/C values a quarter to a half above the control, in often repeated tests (any T/C) and in doses without a T/C. Further doses and runs are listed elsewhere. T/C gives the treated animals as a percentage of the vehicle group. Some doses have a count of surviving animals in place of a T/C: the source files T/C as zero there, which appears to mark a toxic dose or a test without result, not a measured value. Some survivor counts are full or nearly so, which does not show that the dose was tolerated: the source hardly ever lists a survival T/C far under the control, and the zero likely stands for such cases as well. Counts of survivors are from the toxicity check (mostly the fifth day) where no day follows; animals may have died later. Schedule codes are those of the source, read here as Q, the interval in days (D) or hours (H), X, the number of doses. Some doses were run more than once; the values are given in rising order. Some molecules as drawn cover several salts, stereoisomers or complexes of the source; a dose is that of the sample tested. Where survival is the endpoint, this PubChem deposit counts one and a half times the control or more as active, and values a quarter to a half above the control carry no call in these data; other NCI protocols may use other cut-offs.
Tested on: B6C3F1 mice, B16 melanoma ip, median survival T/C
Assay: NCI In Vivo Anticancer Drug Screen. Data for tumor model B16 Melanoma (intraperitoneal) in B6C3F1 mice
Settings: T/C endpoint: median survival time, higher T/C = longer survival
In short: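 Readout: survival or tumor size in treated mice relative to vehicle controls (T/C). Model uses transplantable tumors grown in mice.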

[1] = dose: 25.0 mg/kg/injection, schedule: Q01DX009 (ip), vehicle: saline
[2] = dose: 50.0 mg/kg/injection, schedule: Q01DX009 (ip), vehicle: saline
[3] = dose: 400.0 mg/kg/injection, schedule: Q01DX009 (ip), vehicle: Klucel (hydroxypropylcellulose) (HPC)
[4] = dose: 12.0 mg/kg/injection, schedule: Q01DX009 (ip), vehicle: saline
[5] = dose: 200.0 mg/kg/injection, schedule: Q01DX009 (ip), vehicle: saline with Tween-80
[6] = dose: 400.0 mg/kg/injection, schedule: Q01DX009 (ip), vehicle: saline with Tween-80
[7] = dose: 25.0 mg/kg/injection, schedule: Q01DX009 (ip), vehicle: distilled water + Tween-80 + alcohol
[8] = dose: 100.0 mg/kg/injection, schedule: Q01DX009 (ip), vehicle: saline with Tween-80
[9] = dose: 100.0 mg/kg/injection, schedule: Q01DX009 (ip), vehicle: saline
[10] = dose: 400.0 mg/kg/injection, schedule: Q01DX009 (ip), vehicle: saline

Which results are given for `Cc1c2ccncc2c(COC2OC(CO)C(O)C2O)c2c3ccccc3n(C)c12` (stereo not drawn)?
T/C [1]: 134 % of control; T/C [2]: 144 % of control

`O=C1CC2(C(=O)N1CN1CCCCC1)c1ccccc1-c1ccccc12` was tested. Which survivor count [3] did it give?
The survivor count was 10 of 10.

Which results are given for `COC(COC(=O)N1CCN(C=O)CC1)C1=C(N2CC2)C(=O)C(C)=C(N2CC2)C1=O` (stereo not drawn)?
T/C (dose: 0.38 mg/kg/injection, schedule: Q01DX009 (ip), vehicle: saline): 125 % of control; survivor count (dose: 6.0 mg/kg/injection, schedule: Q01DX009 (ip), vehicle: saline): 10 of 10; survivor count [4]: 10 of 10

What does the source list for `CCSC(=O)N1c2ccc(OC)cc2C=CC1C#N` (stereo not drawn)?
T/C [5]: 141 % of control; T/C [6]: 139 % of control; survivor count [6]: 10 of 10; survivor count (dose: 800.0 mg/kg/injection, schedule: Q01DX009 (ip), vehicle: saline with Tween-80): 7 of 10 and 10 of 10

With `CC(=O)O[C@H]1C(=O)[C@@]2(C)C(C(OC(=O)c3ccccc3)[C@]3(O)CC(OC(=O)[C@H](OC(=O)CCC(=O)O)C(NC(=O)c4ccccc4)c4ccccc4)C(C)=C1C3(C)C)C1(OC(C)=O)COC1C[C@@H]2O` (stereo partly drawn) as the molecule, how does the T/C (dose: 2.5 mg/kg/injection, schedule: Q01DX009 (ip), vehicle: water) read?
Its T/C is 125 % of control.

And the T/C (dose: 5.0 mg/kg/injection, schedule: Q01DX009 (ip), vehicle: water)?
Its T/C is 131 % of control.

`Cc1cc(NCCCCCCNc2cc(C)nc3cc(N(C)C)ccc23)c2ccc(N(C)C)cc2n1` was tested. Which T/C (dose: 3.0 mg/kg/injection, schedule: Q01DX009 (ip), vehicle: distilled water + Tween-80 + alcohol) did it give?
Its T/C is 127 % of control.

What about the T/C (dose: 6.0 mg/kg/injection, schedule: Q01DX009 (ip), vehicle: distilled water + Tween-80 + alcohol) of the same molecule?
Its T/C is 129 % of control.

What about the T/C [7] of the same molecule?
Its T/C is 144 % of control.

And the survivor count [7]?
Its survivor count is 9 of 10.

And the survivor count (dose: 50.0 mg/kg/injection, schedule: Q01DX009 (ip), vehicle: distilled water + Tween-80 + alcohol)?
Its survivor count is 6 of 10.

What about the survivor count (dose: 100.0 mg/kg/injection, schedule: Q01DX009 (ip), vehicle: distilled water + Tween-80 + alcohol) of the same molecule?
The survivor count was 0 of 10.

With `[NH-]C(CCC(N)=O)C(=O)O.[NH-]C(CCC(N)=O)C(=O)O.[Zn+2]` (stereo not drawn) as the molecule, how does the survivor count [8] read?
Its survivor count is 6 of 10.

For `Nc1nc(Br)nc2c1ncn2C1CC(O)C(CO)O1` (stereo not drawn), which survivor count (dose: 120.0 mg/kg/injection, schedule: Q03HX009 (ip), vehicle: saline) is on record?
The survivor count was 8 of 10.

With `CCC(C)C(NC(=O)OCC1c2ccccc2-c2ccccc21)C(=O)O` (stereo not drawn) as the molecule, how does the survivor count [3] read?
The survivor count was 1 of 10 and 7 of 10.

Which results are given for `CCCC[C@H]1C(=O)O[C@H](C)[C@H](NC(=O)c2cccc(NC=O)c2O)C(=O)O[C@@H](C)[C@@H]1OC(=O)CC(C)C`?
survivor count (dose: 1.0 mg/kg/injection, schedule: Q01DX009 (ip), vehicle: Klucel (hydroxypropylcellulose) (HPC)): 7 of 10 and 9 of 10; survivor count (dose: 2.0 mg/kg/injection, schedule: Q01DX009 (ip), vehicle: Klucel (hydroxypropylcellulose) (HPC)): 0 of 10 and 9 of 10; survivor count (dose: 4.0 mg/kg/injection, schedule: Q01DX009 (ip), vehicle: Klucel (hydroxypropylcellulose) (HPC)): 10 of 10

With `C[CH2][Sn]([CH2]C)([CH2]C(=O)OC)[CH2]C(=O)OC` as the molecule, how does the survivor count (dose: 12.5 mg/kg/injection, schedule: Q01DX009 (ip), vehicle: saline with Tween-80) read?
Its survivor count is 8 of 10.

And the survivor count (dose: 25.0 mg/kg/injection, schedule: Q01DX009 (ip), vehicle: saline with Tween-80)?
Its survivor count is 0 of 10.

What about the survivor count (dose: 50.0 mg/kg/injection, schedule: Q01DX009 (ip), vehicle: saline with Tween-80) of the same molecule?
The survivor count was 0 of 10.

And the survivor count [8]?
Its survivor count is 0 of 10.

What about the survivor count [5] of the same molecule?
The survivor count was 0 of 10.

Which survivor count [4] does the source give for `N=C1C=C[C@]2(O)C[C@H](Cl)CN12` here?
The survivor count was 9 of 10.

How did the survivor count (dose: 10.0 mg/kg/injection, schedule: Q01DX009 (ip), vehicle: saline) turn out when `CN(C)[C@@H]1C(=O)C(C(=O)NCN2CCN(C(=N)N=C(N)N)CC2)=C(O)[C@@]2(O)C(=O)C3=C(O)c4c(O)cccc4[C@@](C)(O)[C@H]3C[C@@H]12` was run?
Its survivor count is 8 of 10.

And the survivor count (dose: 20.0 mg/kg/injection, schedule: Q01DX009 (ip), vehicle: saline)?
The survivor count was 0 of 10.

For `O=c1ncccn1[C@@H]1O[C@H](CO)[C@H](O)C1O` (stereo partly drawn), which T/C [9] is on record?
Its T/C is 128 % of control.

And the T/C [10]?
The T/C was 127 % of control.

And the T/C (dose: 800.0 mg/kg/injection, schedule: Q01DX009 (ip), vehicle: saline)?
The T/C was 138 % of control.

Which T/C (dose: 20.0 mg/kg/injection, schedule: Q01DX009 (ip), vehicle: sodium bicarbonate) does the source give for `COc1cc(NCc2ccc3nc(N)nc(N)c3c2C)cc(OC)c1OC` here?
The T/C was 130 % of control.

What about the T/C (dose: 40.0 mg/kg/injection, schedule: Q01DX009 (ip), vehicle: sodium bicarbonate) of the same molecule?
Its T/C is 128 % of control.

What about the T/C (dose: 50.0 mg/kg/injection, schedule: Q01DX009 (ip), vehicle: water) of the same molecule?
Its T/C is 127 % of control.

What about the survivor count (dose: 80.0 mg/kg/injection, schedule: Q01DX009 (ip), vehicle: sodium bicarbonate) of the same molecule?
The survivor count was 10 of 10.

And the survivor count (dose: 100.0 mg/kg/injection, schedule: Q01DX009 (ip), vehicle: water)?
The survivor count was 5 of 5.

What about the survivor count (dose: 200.0 mg/kg/injection, schedule: Q01DX009 (ip), vehicle: water) of the same molecule?
Its survivor count is 2 of 10.

How did the survivor count [2] turn out when `OC(CCl)CN1CC[N+]2(CC1)CC[N+]1(CCN(CC(O)CCl)CC1)CC2` (stereo not drawn) was run?
The survivor count was 3 of 10.

And the survivor count [9]?
The survivor count was 0 of 10.

What about the survivor count (dose: 200.0 mg/kg/injection, schedule: Q01DX009 (ip), vehicle: saline) of the same molecule?
The survivor count was 0 of 10.

And the survivor count [10]?
Its survivor count is 0 of 10.

How did the T/C (dose: 12.5 mg/kg/injection, schedule: Q01DX009 (ip), vehicle: saline) turn out when `CCC(C(=O)O)C(=O)O.[NH2-].[NH2-].[Pt+2]` was run?
Its T/C is 146 % of control.

With `N#CC(Br)(Br)C(N)=O` as the molecule, how does the survivor count (dose: 0.63 mg/kg/injection, schedule: Q01DX009 (ip), vehicle: saline) read?
Its survivor count is 10 of 10.

What about the survivor count (dose: 2.5 mg/kg/injection, schedule: Q01DX009 (ip), vehicle: saline) of the same molecule?
Its survivor count is 10 of 10.

With `CC(C)(C)OC(=O)NC(CSCc1ccccc1)C(=O)ON1C(=O)CCC1=O` (stereo not drawn) as the molecule, how does the survivor count [3] read?
Its survivor count is 9 of 10.

Which survivor count [6] does the source give for `O=C(Oc1ccccc1)c1cc(O)c(O)c(O)c1` here?
The survivor count was 7 of 10.

How did the survivor count [6] turn out when `O=C(N/N=C/c1cccc(O)c1O)N/N=C/c1cccc(O)c1O` was run?
The survivor count was 10 of 10.

What does the source list for `CC1(C)N=C(N)N=C(N)N1c1ccc(F)c(C(F)(F)F)c1`?
T/C [1]: 125 % of control; survivor count [2]: 10 of 10; survivor count [9]: 3 of 10

Which results are given for `CC(C)CC(NC=O)C(=O)O` (stereo not drawn)?
survivor count (dose: 200.0 mg/kg/injection, schedule: Q01DX009 (ip), vehicle: Klucel (hydroxypropylcellulose) (HPC)): 9 of 10; survivor count [3]: 8 of 10

For `O=C1NC(=O)C2(CCc3ccc(N(CCCl)CCCl)cc32)N1` (stereo not drawn), which T/C (dose: 3.0 mg/kg/injection, schedule: Q01DX009 (ip), vehicle: saline with Tween-80) is on record?
Its T/C is 137 % of control.

What about the T/C (dose: 6.0 mg/kg/injection, schedule: Q01DX009 (ip), vehicle: saline with Tween-80) of the same molecule?
The T/C was 145 % of control.
